This passage reports binding signal results from article PMC5996148.

“And” between values parts separate entries of the source, which are not always exact repeats. Equal values may be shown once. Some of the results follow.

Holding throughout (assay): protein microarray (ProtoArray v5.0), streptavidin-Alexa Fluor 647
Holding throughout (details): 3'-biotin; 20 mM Tris (pH 7.5), 5 mM MgCl2, 100 mM KCl, 0.1% Tween-20, A/T-rich and random oligonucleotide blockers; temperature not stated; high values mean tight binding

The subject of experiment [1] is MTAP (human).
Experiment [2] deals with MTHFR (human).
Experiment [3] relates to MTMR1 (human).
The test system of experiment [4] is MTMR2 (human).
Experiment [5] relates to MUCL1 (human).
Experiment [6] deals with MX1 (human).
For experiment [7], the system named is MXD4 (human).
For experiment [8], the system named is MYCBP (human).
The subject of experiment [9] is Malcavernin (human).
In experiment [10] the test system is Mammaglobin-A (human).
Experiment [11] concerns Mannose-6-phosphate receptor-binding protein 1 (human).
Experiment [12] concerns Mediator of RNA polymerase II transcription subunit 22 (human).
For experiment [13], the system named is Mediator of RNA polymerase II transcription subunit 4 (human).
In experiment [14] the test system is Melanocortin-2 receptor accessory protein (human).
In experiment [15] the test system is Melanoma-associated antigen 3 (human).
Experiment [16] deals with Melanoregulin (human).
The test system of experiment [17] is Membrane-associated progesterone receptor component 2 (human).
Experiment [18] deals with Metal transporter CNNM3 (human).
Experiment [19] concerns Mitochondrial coiled-coil domain protein 1 (human).
The test system of experiment [20] is Mitochondrial import inner membrane translocase subunit TIM14 (human).

For the sequence “GGGGACAGGGGTATGGGGAGGGG [G4-3 biotinylated (CtG)]”, the binding signal is -0.306 z-score and -0.335 z-score in [1]; -0.327 z-score in experiment [2]; -0.328 z-score in experiment [3]; -0.351 z-score in experiment [4]; -0.309 z-score in experiment [5]; -0.324 z-score in experiment [6]. For the same sequence, the binding signal in experiment [7] was -0.317 z-score; in experiment [8], -0.329 z-score; in experiment [9] it was -0.328 z-score; in experiment [10] it was -0.333 z-score; in experiment [11] it was -0.349 z-score; in experiment [12], -0.342 z-score. Further, the binding signal in experiment [13] is -0.331 z-score; in [14], -0.296 z-score; in experiment [15], -0.344 z-score; in [16], -0.318 z-score; in [17], -0.301 z-score; in experiment [18] it was -0.319 z-score. The binding signal in [19] is -0.333 z-score; in experiment [20], 4.56 z-score.
